Test results published in patent US7524836B2, “Nitrooxyderivative steroidal compounds” (Nicox S.A., priority 2001, dated 2009).
Some results were stated once for a whole list of compounds, not compound by compound.

Legend:
[1] = Test 5: inhibition of radical production from Fe^II (desoxyribose degradation); conditions: 10^-4 M methanolic solution, 37° C. for one hour, absorbance at 532 nm
Method: […]
Test 5 is a […] test wherein 0.1 ml aliquots of 10^−4 M methanolic solutions of the tested products are added to test tubes containing a solution formed by 0.2 ml of 2 mM desoxyribose, 0.4 ml of phosphate buffer pH 7.4 100 mM and 0.1 ml of 1 mM Fe^II(NH4)2(SO4)2 in 2 mM HCl. […] A pink coloration is developed the intensity of which is proportional to the quantity of desoxyribose undergone to radical oxidative degradation. The solutions are cooled at room temperature and their absorbances are read at 532 nm against the blank. The inhibition induced by the precursor of B or B1 or C=-TC-Y—H in comparison with the radical production by Fe^II is determined by means of the following formula: (1−AS/AC)×100 wherein AS and AC are respectively the absorbance values of the solution containing the tested compound+the iron salt and that of the solution containing only the iron salt, the compound meets test 5 when the inhibition percentage of radical production as above defined from the precursor of B or B1 or C=-TC-Y—H is higher than or equal to 50%. […]

[2] = Test 4: inhibition of radical production from DPPH; conditions: tested substance 10^-4 M (100 μM) in methanol, 30 minutes, absorbance at 517 nm
Method: [drawing 21] • wherein test 4 is the following: it is an analytical determination carried out by adding portions of methanol solutions of the precursor of B or B1 at a 10^−4 M concentration, to a methanol solution of DPPH (2,2-diphenyl-1-picryl hydrazyl-free radical); after having maintained the solution at room temperature away from light for 30 minutes, it is read the absorbance at the wave length of 517 nm of the test solution and of a solution containing only DPPH in the same amount as in the test solution; and then the inhibition induced by the precursor towards radical production by DPPH is calculated as a percentage by means of the following formula: (1−AS/AC)×100 wherein AS and AC are respectively the absorbance values of the solution containing the test compound+DPPH and that of the solution containing only DPPH; the acceptance criterium of the compounds according to this test is the following: test 4 is met by B or B1 precursor compounds if the inhibition percentage as above defined is higher than or equal to 50%;
Test 4 is a […] test which affords to establish whether the orecursors of B or B1 inhibit the production of radicals from DPPH (2,2-diphenyl-1-picryl-hydrazyl) (M. S. Nenseter et Al., Atheroscler. Thromb. 15, 1338-1344, 1995). 100 μM solutions in methanol of the tested substances are prepared, and an aliquot of each of said solutions is added to a DPPH solution in methanol […]. After having stored the solutions at room temperature away from light for 30 minutes, their absorbances are read at the wave length of 517 nm, together with that of the corresponding DPPH solution at the same concentration. The absorbance decrease with respect to that of the solution of DPPH at the same concentration of the test solutions is determined. […]
Solutions in methanol of the tested substances at a final concentration 100 μM are initially prepared. […] After having stored the solutions at room temperature away from light for 30 minutes, the absorbance at the wave length of 517 mm is read. […]

SMILES: O=C(O)C1CSCN1 (stereo not shown) [4-thiazolidin carboxylic acid]
- % Radical Inhibition from Fe^II [1]: higher than 50%

SMILES: N[C@@H](CS)C(=O)O [Cysteine]
- % inhibition radical production from DPPH ([2]; listed as cysteine): higher than 50%

SMILES: COc1cc(/C=C/C(=O)O)ccc1O [Ferulic acid]
- % inhibition radical production from DPPH ([2]; listed as ferulic acid): higher than 50%

SMILES: O=C(O)c1cc(O)ccc1O [Gentisic acid]
- % inhibition radical production from DPPH ([2]; listed as gentisic acid): higher than 50%
